Assay results reported in US20170112748A1, “N-ACYLPEPTIDE DERIVATIVES AND THEIR USES” (NeoStrata Company, Inc., priority 2012, published 2017).
Some entries share one result that the patent states for a list of compounds.

How the values were obtained:
[1] = skin plump / skin thickness test after topical application, caliper measurement; type: in vivo, human; conditions: forearm spots
Method: In one of the studies related to skin changes associated with aging, skin thickness was measured by micrometer calipers as follows.
The skin was grasped with a 2×6 cm metal hinge: the internal faces of which were coated with emery cloth to prevent slippage, and manually squeezed to threshold subject discomfort. Combined thickness of two whole-skin layers including thickness of the two hinge leaves was measured with micrometer calipers. Thickness of the two hinge leaves was subtracted to determine the actual thickness of two whole-skin layers. Triplicate measurements on treated sites were done and an average number was used for calculation of the skin thickness.
In other studies, test sites of skin 17 mm in diameter were used, the circular sites were marked with permanent ink. Intervening control sites were also 17 mm in diameter. Thickness of skin of all sites was measured directly by means of an electronic digital caliper. In this instance the jaws of the caliper were opened to 17 mm, applied with pressure to the skin sites and then closed to firm tightness. Thickness of skin was then read off the screen of the calipers. Measurements of all sites were made in triplicates. […]

[2] = topical treatment of chronic inflammation, erythema, eczema with thick scales and itch, clinical evaluation; type: in vivo, human; conditions: Example 10: subject, twice daily, 2 weeks; -NH2 0.3% (w/v) and -OEt 0.5% (w/v) in WEP442, one lesion each
From the text: The involved skin was divided into two lesions for testing. The subject topically applied twice daily to one lesion, N-Ac-L-Tyr-L-Tyr-L-Tyr-NH2 0.3% (w/v) in WEP442, pH 5.9 solution composition, prepared according to Example 2, and to second lesion, N-Ac-L-Tyr-L-Tyr-L-Tyr-OEt 0.5% (w/v) in WEP 442, pH 6.0, prepared according to Example 2. […] The treated skin had 90-95% improvement as judged by clinical evaluation.

[3] = Example 6: subject, 0.5% (w/v) in WEP721 topically three times daily, 7 days
[4] = Example 7: subject, 0.5% (w/v) in WEP721 topically three times daily, 7 days
[5] = Example 9: subject, severe photodamage, 0.5% (w/v) in WEP721 (spot A in WEP442) four times daily, 10 days

Substance	increase in skin thickness [1, 3]	increase in skin thickness [1, 4]	increase in skin thickness [1, 5]	improvement as judged by clinical evaluation [2]
N-Ac-L-Arg-L-Arg-L-Arg-NH2	5-10%	5-10%		
N-Ac-L-Ala-L-Leu-L-Lys-L-His-L-Arg-NH2 (ALKHR; N-acetyl, C-amide; N-acylpentapeptide derivative)	5-10%	5-10%		
N-Bz-L-Ala-L-Leu-L-Lys-L-His-L-Arg-NH2 (ALKHR; N-benzoyl, C-amide; N-acylpentapeptide derivative)			10-20%	
N-Ac-L-Tyr-L-Tyr-L-Tyr-NH2	5-10%	5-10%		90-95%
N-Ac-L-Tyr-L-Tyr-L-Tyr-OEt				90-95%
N-Ac-L-Tyr-L-Tyr-L-Tyr-OH	5-10%	5-10%	10-20%	
N-Pr-L-Ala-L-Leu-L-Lys-L-His-L-Arg-NH2 (ALKHR; N-propionyl, C-terminal amide; N-acylpentapeptide derivative)			10-20%	
